The text below walks through data of paper doi:10.1101/2020.12.04.411520.

Sequences of proteins named here, by UniProt entry; tags and fusion partners are left off. A change or cut given only in a name is not applied to a line headed by its entry.
UniProt P05787: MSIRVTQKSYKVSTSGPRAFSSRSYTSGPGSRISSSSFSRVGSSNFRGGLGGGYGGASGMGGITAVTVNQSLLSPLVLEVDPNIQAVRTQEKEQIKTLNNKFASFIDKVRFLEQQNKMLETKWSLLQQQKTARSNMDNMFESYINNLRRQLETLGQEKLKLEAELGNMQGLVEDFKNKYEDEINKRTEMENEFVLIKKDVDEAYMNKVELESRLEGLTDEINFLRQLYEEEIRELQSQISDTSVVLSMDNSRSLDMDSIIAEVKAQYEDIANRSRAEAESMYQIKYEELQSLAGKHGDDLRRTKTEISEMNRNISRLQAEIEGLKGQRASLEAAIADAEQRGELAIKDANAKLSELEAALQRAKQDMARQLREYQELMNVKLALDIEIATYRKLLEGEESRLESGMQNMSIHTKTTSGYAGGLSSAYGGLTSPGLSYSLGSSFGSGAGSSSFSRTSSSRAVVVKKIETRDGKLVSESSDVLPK

These are yes or no findings as the source states them, for the method shown. Binding seen in cells or lysates may run through a third protein. Some binding calls cover weakened binding; strength is not graded here. Sequences can lack the tags named with a protein.

This assay has as its target T1, BioGFP::BBLN (human) (UniProt Q9BUW7).
T1 sequence (chain, biotin (Bio tag, BirA co-expressed)): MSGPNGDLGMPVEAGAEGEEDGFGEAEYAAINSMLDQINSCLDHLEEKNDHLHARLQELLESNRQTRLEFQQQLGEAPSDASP
The assay is described as follows: pull-down.

On to “keratin 8/18 (from UniProt P05787 1-483; P05783 1-430) (complex)”, for which the binding entry is “binds”.
